Laboratory results as given in patent publication US20260355357A1, “DIAGNOSTIC AGENTS AND USES THEREOF” (HADASIT MEDICAL RESEARCH SERVICES AND DEVELOPMENT LTD., priority 2023, published 2026).

Tested on: breast cancer tumor
Experiment: Deuterium MRI of female mice bearing breast cancer tumor
Assay type: in vivo, mouse
Details: 0.5 g/kg intravenous, data not shown

## [2H]C([2H])(O)[C@H]1OC(O)C[C@@]([2H])(O)[C@]1([2H])O (stereo partly drawn) [[D4]DDG, [3,4,6,6-D4]2-deoxy-D-glucose]
  time points after administration at which visualized by deuterium MRI: 30 minutes to at least 48 hours
